Data as given in PubChem BioAssay AID1259308 (NCATS, 2017)

- Screen: 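Candidate targets for better recombinant protein yield in mammalian cells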 (primary screen)
- Cell system: human HEK293 embryonic kidney cells stably expressing firefly luciferase (HEK-CMV-Luc2-Hygro)
- Reagents: single siRNA against human genes, 0.8 pmol siRNA per well
- Time to read-out: 72 h
- Measurement: 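Reporter luminescence and viable-cell signal on separate replicate plates, given as percent of non-targeting control and median/MAD z-scores, plus per-cell luciferase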
- Direction: total luciferase, z-score: higher = more reporter protein produced
- Rule for the call: 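Active when the median/MAD z-score for overall luciferase is greater than 3; a gene was taken forward for validation with new siRNAs if at least two of its three siRNAs passed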
- Meaning of the calls: active = raised luciferase; inactive = no rise
The whole screen tested about 59,000 reagents; shown is a part drawn at random. About 1,510 of all reagents (2.6%) count as active. 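Calls use total luciferase alone and ignore viability, so some active siRNAs may act by altering cell number.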 A number with no mark means an inactive call. The numbers tell different reagents against one gene apart. Not all columns of the deposit are shown. Reagent sequences are not shown.

Against ATP6V1F (GeneID 9296) #1, the entry reads total luciferase, z-score 0.502. With knock-down of ATP6V1F (GeneID 9296) #2, the screen gave total luciferase, z-score 0.0635. ATP6V1F (GeneID 9296) #3 showed total luciferase, z-score 1.76. With knock-down of MT1F (GeneID 4494) #1, the record shows total luciferase, z-score 0.0125. MT1F (GeneID 4494) #2 scored total luciferase, z-score 2.38. After knock-down of MT1F (GeneID 4494) #3 the results were total luciferase, z-score -0.431.

CLNS1A (GeneID 1207) #1 gave total luciferase, z-score 0.81. CLNS1A (GeneID 1207) #2 scored total luciferase, z-score -0.384. Knock-down of CLNS1A (GeneID 1207) #3 came out at: total luciferase, z-score -0.781. Silencing of PNLIPRP3 (GeneID 119548) #1 gave: total luciferase, z-score -0.322. For PNLIPRP3 (GeneID 119548) #2, the entry reads total luciferase, z-score 2.08. Depletion of PNLIPRP3 (GeneID 119548) #3 resulted in: total luciferase, z-score -0.53.

Against KLHDC1 (GeneID 122773) #1, the values are total luciferase, z-score 0.976. Silencing of KLHDC1 (GeneID 122773) #2 resulted in: total luciferase, z-score 4.12 (active). For KLHDC1 (GeneID 122773) #3, the entry reads total luciferase, z-score 0.669. Knock-down of HSFX2 (GeneID 100130086) #1 gave: total luciferase, z-score -0.595. Depletion of HSFX2 (GeneID 100130086) #2 came out at: total luciferase, z-score -0.129. For HSFX2 (GeneID 100130086) #3, the entry reads total luciferase, z-score -0.725.

Reformatted: entries from further up
{"gene knocked down": "MT1F (GeneID 4494)", "reagent": 1, "total luciferase, z-score": 0.0125}
{"gene knocked down": "MT1F (GeneID 4494)", "reagent": 2, "total luciferase, z-score": 2.38}
{"gene knocked down": "MT1F (GeneID 4494)", "reagent": 3, "total luciferase, z-score": -0.431}
{"gene knocked down": "CLNS1A (GeneID 1207)", "reagent": 1, "total luciferase, z-score": 0.81}

The list goes on.
Against DDX51 (GeneID 317781) #1, the entry reads total luciferase, z-score -0.45. DDX51 (GeneID 317781) #2 gave total luciferase, z-score 1.65. Depletion of DDX51 (GeneID 317781) #3 came out at: total luciferase, z-score -1.17. NUPR1 (GeneID 26471) #1 gave total luciferase, z-score -0.307. Against NUPR1 (GeneID 26471) #2, the values are total luciferase, z-score -0.066. Against NUPR1 (GeneID 26471) #3, the values are total luciferase, z-score -0.898.

After knock-down of GPT (GeneID 2875) #1 the results were total luciferase, z-score 0.182. Against GPT (GeneID 2875) #2, the entry reads total luciferase, z-score 1.59. Knock-down of GPT (GeneID 2875) #3 gave: total luciferase, z-score -0.0288. With knock-down of TBL1XR1 (GeneID 79718) #1, the screen gave total luciferase, z-score 0.621. For TBL1XR1 (GeneID 79718) #2 the deposit lists total luciferase, z-score -0.61. For TBL1XR1 (GeneID 79718) #3, the entry reads total luciferase, z-score -0.702.

NDRG4 (GeneID 65009) #1 showed total luciferase, z-score 1.13. For NDRG4 (GeneID 65009) #2, the entry reads total luciferase, z-score -0.368. NDRG4 (GeneID 65009) #3 scored total luciferase, z-score -0.144.
